Results are given in words; binding and its absence hold for the method and conditions named. Some binding calls cover weakened binding; strength is not graded here. Tags and fused reporters may be left off the sequences shown.

The chains behind the UniProt entries cited, without tags or fusion partners. Where a name states a change or a piece, a line headed by the entry shows the natural chain unless it says otherwise.
UniProt P12643: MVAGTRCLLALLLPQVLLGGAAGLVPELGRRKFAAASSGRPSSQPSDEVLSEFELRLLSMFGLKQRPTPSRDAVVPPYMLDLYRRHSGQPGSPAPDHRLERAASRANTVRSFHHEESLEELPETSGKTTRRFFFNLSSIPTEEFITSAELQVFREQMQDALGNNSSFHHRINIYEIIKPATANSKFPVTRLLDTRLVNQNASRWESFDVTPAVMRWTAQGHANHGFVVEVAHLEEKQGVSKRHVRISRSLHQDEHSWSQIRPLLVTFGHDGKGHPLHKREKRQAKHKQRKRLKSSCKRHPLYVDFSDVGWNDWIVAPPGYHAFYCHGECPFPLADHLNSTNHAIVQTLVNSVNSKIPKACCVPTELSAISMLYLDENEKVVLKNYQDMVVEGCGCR
UniProt P22004: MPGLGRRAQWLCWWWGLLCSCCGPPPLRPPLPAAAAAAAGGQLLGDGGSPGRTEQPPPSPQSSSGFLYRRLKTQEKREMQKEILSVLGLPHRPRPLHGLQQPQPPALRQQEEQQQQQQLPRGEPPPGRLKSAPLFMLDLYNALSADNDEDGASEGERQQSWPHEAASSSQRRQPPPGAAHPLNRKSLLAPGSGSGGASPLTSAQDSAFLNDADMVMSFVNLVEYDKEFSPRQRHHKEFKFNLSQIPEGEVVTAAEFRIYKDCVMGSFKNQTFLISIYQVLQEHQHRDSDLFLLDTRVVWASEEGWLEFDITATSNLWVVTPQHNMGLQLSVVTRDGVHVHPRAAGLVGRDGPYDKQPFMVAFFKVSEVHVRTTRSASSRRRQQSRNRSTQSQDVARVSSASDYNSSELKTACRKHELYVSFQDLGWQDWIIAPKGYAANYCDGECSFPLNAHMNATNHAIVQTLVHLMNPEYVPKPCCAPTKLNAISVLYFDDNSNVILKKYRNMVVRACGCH

What all share (assay): BLI (Octet), receptor-Fc on anti-human IgG tips
In general terms: Biolayer interferometry detects binding as a change in optical thickness at a sensor tip.

Assay [1] has as its target T1, ALK6 receptor-human-IgG1-Fc fusion protein (human) (UniProt O00238).
T1 sequence (looked up): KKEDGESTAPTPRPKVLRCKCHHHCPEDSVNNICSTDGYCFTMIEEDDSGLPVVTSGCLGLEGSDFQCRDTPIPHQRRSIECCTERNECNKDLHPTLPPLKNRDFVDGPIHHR

In assay [2] the target is T2, ActRIIB receptor-human-IgG1-Fc fusion protein (human) (UniProt Q13705).
T2 sequence (looked up): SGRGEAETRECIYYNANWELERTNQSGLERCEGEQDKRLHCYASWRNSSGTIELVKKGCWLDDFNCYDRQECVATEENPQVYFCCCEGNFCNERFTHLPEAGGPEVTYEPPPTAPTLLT

Assay [3] concerns the target T3, BMPRII receptor-human-IgG1-Fc fusion protein (human) (UniProt Q13873).
T3 sequence (looked up): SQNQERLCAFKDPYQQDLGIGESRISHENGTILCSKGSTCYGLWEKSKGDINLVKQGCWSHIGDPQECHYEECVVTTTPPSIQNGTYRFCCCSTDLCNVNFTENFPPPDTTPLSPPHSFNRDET

As to “wild type BMP2 homodimer (from UniProt P12643 283-396) (ligand)”, the binding entry in assay [1] is reported as “binds”.

As for “wild type BMP2/6 heterodimer (from UniProt P12643 283-396; P22004 375-513) (ligand)”, the binding result in assay [1] was “binds”.

In the case of “wild type BMP6 homodimer (from UniProt P22004 375-513) (ligand)”, the binding entry in assay [2] and in assay [3] was “binds” in each case.

Values taken from patent US20160207973A1.
